Results deposited as PubChem BioAssay AID1671195 (Yale University, 2021).
Screen: 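Knockdowns that increase or decrease uptake of fluorescent LDL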 (primary screen). System: human Huh7 hepatoma cells. Knock-down reagent: siRNA pool against human genes, 18 nM. Timing: about 2 to 2.5 days of knockdown, then 8 h LDL uptake. Conditions: DiI-labelled LDL at 30 µg/ml for 8 h, in lipoprotein-deficient serum medium. Measured: 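Fluorescent LDL signal imaged in cells, scaled to the plate median, robust z-score for each replicate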. Scale: robust z-score: higher = more LDL uptake after knockdown. Rule for the call: 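Active when two or more replicates show a robust z-score above 2 or below -2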.
The deposit covers about 22,000 reagents; shown is a part drawn at random. In the full data, about 1,510 (6.9%) got an active call. 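Active includes knockdowns raising or lowering LDL uptake; positive z-scores mean more uptake, negative mean less.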 A number with no mark means an inactive call. No sequences are given here.

| Target gene | robust z-score, replicate 1 | robust z-score, replicate 2 | robust z-score, replicate 3 |
| --- | --- | --- | --- |
| MSN | 1.26 | 1.47 | 1.56 |
| OR14C36 | 2.99 (active) | 2.37 | 0.253 |
| PALMD | -0.0879 | 0.274 | 0.35 |
| TCL1B | -1.16 | -0.641 | -1.2 |
| RPL7P48 | -0.925 | -0.596 | -1.22 |
| LOC391016 (retired record) | 0.936 | 0.6 | 1.41 |
| LINC00550 | -0.0217 | -0.261 | -0.146 |
| PHF20 | 2.48 (active) | 1.81 | 2.09 |
| ISCA1P1 | -1.07 | -1.12 | -0.954 |
| STRADB | 0.349 | 0.066 | 0.913 |
| CASP14 | -0.788 | 0.377 | 0.209 |
| LOC441570 (retired record) | 0.00496 | 0.121 | 0.307 |
| RPL19 | -1.21 | -1.44 | -0.706 |
| MTCL1 | -0.433 | 0.216 | 0.369 |
| MCF2L2 | -1.93 (active) | -0.0684 | -2.02 |
| KIRREL3 | 0.0909 | -0.964 | 0.158 |
| LINC01749 | 2.4 (active) | 2.73 | 2.68 |
| GARIN1B | 0.701 | 0.424 | 0.763 |
| PLA2G1B | -0.923 | -0.808 | -0.964 |
| DNAI3 | 0.508 | 0.746 | 0.0172 |
| WEE1 | -0.241 | -0.0379 | -0.243 |
| DDX43 | 0.553 | -0.998 | -0.692 |
| CAV1 | 1.56 | -0.421 | -0.52 |
| PRKAG2 | -0.33 | -0.107 | -0.555 |
| KDM8 | 2.21 | 1.56 | 1.89 |
| PALLD | 0.778 | 1.01 | -0.179 |
| MKRN3 | 1.91 | 1.89 | 1.75 |
| EPS15L1 | 0.311 | 0.474 | 0.988 |
| PTGS1 | 2.07 | 0.143 | -0.0249 |
| LOC441099 (retired record) | -0.646 | -0.785 | -0.862 |
| TOPAZ1 | 1.49 | 1.37 | 1.59 |
| STMN3 | -0.662 | -1.41 | 0.515 |
| MSL2 | 1.11 | -0.799 | -0.885 |
| OR51A7 | -0.176 | -0.416 | 0.00453 |
| GOLGA8VP | 0.614 | 0.0647 | 0.183 |
| LOC100288884 | -0.136 | -0.00214 | -0.535 |
| LOC401268 (retired record) | -2.11 (active) | -1.9 | -2.12 |
| COG1 | -0.38 | -0.337 | 0.549 |
| ARHGAP9 | 0.121 | 0.53 | 0.664 |
| RIOK1 | -0.513 | -0.755 | -0.626 |
| CRACD | 1.01 | -0.678 | -0.897 |
| CNGA3 | -1.29 | -1.66 | -1.05 |
| SPRNP1 | -0.734 | -1.6 | -1.83 |
| LOC132870 (retired record) | -0.0454 | -0.848 | -0.539 |
| UBA2 | -1.71 | -0.384 | -0.299 |
| NOSTRIN | -0.639 | 1.12 | 0.662 |
| UCHL1 | -0.107 | 0.222 | -0.149 |
| LRRC57 | 0.122 | 0.017 | 0.008 |
| CD2BP2 | -0.627 | 0.603 | 0.301 |
| FLG | -2.02 (active) | -1.98 | -1.98 |
| FAM131A | -0.768 | 0.396 | 0.101 |
| NIPAL3 | -0.398 | -0.348 | -0.324 |
| ZNF503-AS1 | -0.839 | -0.327 | -0.247 |
| RCN3 | -0.974 | -0.785 | -0.704 |
| TSG101 | 0.195 | -1.09 | -0.918 |
| USHBP1 | 2.99 | 0.955 | 0.6 |
| YTHDF1 | -0.786 | -0.358 | 0.0982 |
| AKIRIN2 | -0.724 | 0.941 | -0.307 |
| NTM | 0.82 | 0.149 | -0.674 |
| PAX9 | -1.49 | -1.5 | -1.37 |
| DEMA1 | -0.511 | -0.981 | -0.672 |
| LOC441799 (retired record) | -0.57 | -0.606 | -0.962 |
| NCOR1 | -0.0294 | 0.138 | 0.706 |
| LRP5 | 1.88 (active) | 2.29 | 2.66 |
| ANGPTL3 | -1.01 | -0.338 | 0.816 |
| RPL6P25 | 0.738 | 0.52 | 0.989 |
| GRIK5 | -0.505 | -0.655 | -0.238 |
| HOXA10 | -0.737 | -0.98 | -1.12 |

Reprinted from the entries so far for reference:
| Target gene | robust z-score, replicate 1 | robust z-score, replicate 2 | robust z-score, replicate 3 |
| --- | --- | --- | --- |
| CNGA3 | -1.29 | -1.66 | -1.05 |
| SPRNP1 | -0.734 | -1.6 | -1.83 |
| LOC132870 (retired record) | -0.0454 | -0.848 | -0.539 |
| UBA2 | -1.71 | -0.384 | -0.299 |
| NOSTRIN | -0.639 | 1.12 | 0.662 |
| UCHL1 | -0.107 | 0.222 | -0.149 |
| LRRC57 | 0.122 | 0.017 | 0.008 |
| CD2BP2 | -0.627 | 0.603 | 0.301 |
